Among the data in the supplement of paper PMC8256030 are percent effect values, retold here.

Values joined by “and” are separate entries in the source; they are usually repeats but may differ in a detail not shown here. Equal entries are not always repeated. The list shows a part of the results. This data set is noisy: repeats of one test often differ as much as different tests do.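 HEK293T cells were given each compound shortly before transfection with a reporter in which red mCherry is followed by the SARS-CoV-2 frameshift element and then GFP in the −1 frame, so GFP appears only after frameshifting.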

The test concerns SARS-CoV-2 -1 PRF reporter mCherry-FSE-GFP(-1). In words: percent effect, decrease of GFP/mCherry ratio (-1 PRF reporter) relative to controls; higher = stronger frameshift inhibition. The settings on record: 10 µM; 24 h; HEK293T.
Take `CC(C)(C)N1CCC(c2ccccc2)(c2ccccc2)CC1` [budipine]: the percent effect is -2.39%.

Regarding `CC(C)Cc1ccc([C@H](C)C(=O)O)cc1` [dexibuprofen], the percent effect was 0.663%.

In the case of `CC12CC3CC(C)(C1)CC(N)(C3)C2` [memantine], the percent effect was -0.269% and 1.08%.
